Laboratory results reported in patent US20080058297A1, “Heterocyclic Compounds For Preventing And Treating Disorders Associated With Excessive Bone Loss” (Synta Pharmaceuticals Corp., priority 2003, published 2008).

Test system: Human peripheral blood mononuclear cells (PBMC)
Assay: Inhibition of osteoclast formation (RANKL/M-CSF induced, TRAP staining)
Assay type: cell-based
Conditions: 96 h, Table 1, 20 ng/ml RANKL + 10 ng/ml M-CSF, TRAP-positive cells with more than 3 nuclei, read-out: IC50 (compound concentration required for 50% inhibition of osteoclast formation)
Description: (§1) Human peripheral blood mononuclear cells (PBMC) were isolated from healthy donor blood. The cells were seeded in multi-well plates at 7.5×10^5 cells/ml in RPMI 1640 medium including 10% FBS. Osteoclast formation was induced with 20 ng/ml of recombinant human receptor activator of NF-kB-ligand (RANKL) and 10 ng/ml of human M-CSF in the presence of various doses of test compounds. After 48 hours of culture, RANKL and M-CSF was replenished and further cultured for 2 days. Then, the cultured cells were stained for tartrate-resistant acid phosphatase (TRAP). Osteoclasts were identified as TRAP-positive cells with more than 3 nuclei. Total cell viability was assessed by CCK-8 assay (Dojindo, Gaithersburg, Md.) with 24 hour incubation.
as §1, with “Isolated” for “isolated”, “Osteoclasts were identified as TRAP-positive cells with more than 3 nuclei.” left out

`CC/C(=C(\c1ccccc1)c1ccc(OCCN(C)C)cc1)c1ccccc1` [Tamoxifen, reference compound] showed an IC50 of 474 nM.
